{"sequences": {"note": "Sequences of proteins named here, by UniProt entry; tags and fusion partners are left off. A change or cut given only in a name is not applied to a line headed by its entry.", "UniProt P11473": "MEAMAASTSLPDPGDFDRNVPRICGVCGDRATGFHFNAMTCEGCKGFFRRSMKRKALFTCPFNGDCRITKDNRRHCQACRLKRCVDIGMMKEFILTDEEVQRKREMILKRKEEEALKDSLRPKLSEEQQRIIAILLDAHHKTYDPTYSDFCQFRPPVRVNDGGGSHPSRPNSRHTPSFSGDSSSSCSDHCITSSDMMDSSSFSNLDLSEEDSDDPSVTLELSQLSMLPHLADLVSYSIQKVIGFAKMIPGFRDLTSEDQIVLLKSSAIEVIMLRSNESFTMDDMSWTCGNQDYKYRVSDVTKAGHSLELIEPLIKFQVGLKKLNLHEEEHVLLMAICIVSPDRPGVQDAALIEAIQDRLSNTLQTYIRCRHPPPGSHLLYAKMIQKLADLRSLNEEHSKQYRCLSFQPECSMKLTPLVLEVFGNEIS"}, "source": "PubChem BioAssay AID504847", "about": "(National Center for Advancing Translational Sciences (NCATS), 2011)", "note": "Values joined by “and” are separate entries in the source; they are usually repeats but may differ in a detail not shown here. Equal values may be shown once. The whole screen tested about 400,000 compounds, of which about 3,700 (0.93%) were called active. Inconclusive results, whose numbers are uncertain, are shown with a selection of clear calls. Calls follow the shape of the dose curve; as a rule, active = well fitted inhibition curve with a large enough effect; inconclusive = small, poorly fitted or top-dose-only effect, or another doubt; inactive = no such curve, though single readings can be large or run the other way. Where the call is inconclusive, the potency comes from a doubtful curve fit. % is scaled to controls: 0 for no effect and ±100 for the full control effect; potency is read from the fitted curve at half-maximal effect.", "data": [{"target": "Vitamin D3 receptor (Homo sapiens) (UniProt P11473)", "test": "Inhibitors of the vitamin D receptor (VDR): qHTS", "conditions": "VDR-SRC2-3 peptide fluorescence polarization, 2 h; max response, negative = inhibition: hits give low values", "outline": "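After 23 nl compound addition and a short centrifugation, plates sat for 2 hours at ambient temperature; polarization of fluorescence then indicated loss of VDR binding to peptide SRC2-3.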", "values": [{"smiles": "CC12CC[C@H]3[C@@H](CCC4(O)C[C@H](O)CCC34/C=N/NC(=O)c3ccccc3Cl)C1(O)CCC2C1=CC(=O)OC1", "note": "(some centres not stated)", "Potency": "inconclusive: 15.8 µM [inhibitor, partial curve, poor fit]"}, {"smiles": "N#CCCn1cc(C(=O)Nc2ccc([N+](=O)[O-])cc2)c(-c2ccc3c(c2)OCCO3)n1", "Potency": "inconclusive: 79.4 µM [inhibitor, single point]"}, {"smiles": "CCC1Nc2ncnc(N3CCN(c4ccccn4)CC3)c2N(Cc2ccc(Br)cc2)C1=O", "note": "(configuration not stated)", "Potency": "inconclusive: 89.1 µM [inhibitor, partial curve, poor fit]"}, {"smiles": "O=C1CSC(c2ccccc2Cl)c2cc(Cl)ccc2N1", "note": "(configuration not stated)", "Potency": "inconclusive: 44.7 µM [inhibitor, partial curve, poor fit]"}, {"smiles": "Cc1cc(N2CCCC2)ccc1C=C(C#N)C#N", "Potency": "inconclusive: 89.1 µM [inhibitor, single point]"}, {"smiles": "CCOc1cc(C=C2C(=O)NC(=S)NC2=O)ccc1O", "Potency": "inconclusive: 44.7 µM [inhibitor, partial curve, poor fit]"}, {"smiles": "C[C@@]12CC(c3ccoc3)OC(=O)C1CC[C@@]1(C)C2C2C=C[C@@]1(O)C(=O)O2", "note": "(some centres not stated)", "max response, negative = inhibition": "inactive: -5.27%"}, {"smiles": "CC(C)C[C@H]1C(=O)N2CCCC2[C@]2(O)O[C@](NC(=O)[C@@H]3C=C4c5cccc6[nH]c(Br)c(c56)C[C@H]4N(C)C3)(C(C)C)C(=O)N12", "note": "(some centres not stated)", "Potency": "active: 17.8 µM"}, {"smiles": "CC1CCCN(CC(=O)c2ccc(Cl)c(Cl)c2)C1", "note": "(configuration not stated)", "Potency": "inconclusive: 79.4 µM [inhibitor, partial curve, poor fit]"}, {"smiles": "CC(=O)Nc1c2sscc-2n(C)c1=O", "Potency": "active: 39.8 µM"}, {"smiles": "O=C(N/N=C/c1ccc([N+](=O)[O-])o1)c1cc([N+](=O)[O-])cc([N+](=O)[O-])c1O", "Potency": "inconclusive: 89.1 µM [inhibitor, single point]"}, {"smiles": "O=C1NC(=O)N(Cc2ccc(F)cc2)C(=O)/C1=C\\c1ccc([N+](=O)[O-])s1", "Potency": "inconclusive: 20 µM [inhibitor, full curve, poor fit]"}, {"smiles": "CCC(=O)CCCCC[C@@H]1NC(=O)[C@H]2CCCCN2C(=O)[C@H]([C@@H](C)CC)NC(=O)[C@H](Cc2cn(OC)c3ccccc23)NC1=O", "Potency": "inconclusive: 31.6 µM [inhibitor, partial curve]"}, {"smiles": "COC(=O)N(c1ccccc1)P1(=S)OCCO1", "Potency": "inconclusive: 70.8 µM [inhibitor, partial curve, poor fit]"}, {"smiles": "CC(N)C(=O)NC1C2C(=C(O)CC(O)C2O)C(=O)OC1(C)C(Cl)Cl", "note": "(configuration not stated)", "max response, negative = inhibition": "inactive: -17.6%"}, {"smiles": "COP(=O)(NS(=O)(=O)c1ccccc1)OC", "Potency": "inconclusive: 15.8 µM [inhibitor, partial curve, poor fit]"}, {"smiles": "COc1ccc(-n2c(O)c(/C=C3\\C=Nc4ccc(Br)cc43)c(=O)[nH]c2=O)c(OC)c1", "Potency": "active: 50.1 µM"}, {"smiles": "Brc1c(Br)c(Br)c2n[nH]nc2c1Br", "Potency": "active: 44.7 µM"}, {"smiles": "Cc1ccc(OCCOc2cccc(C=C3C(=O)NC(=O)NC3=O)c2)c(C)c1", "Potency": "inconclusive: 31.6 µM [inhibitor, single point]"}, {"smiles": "Cc1ccc(NC(=O)Cn2cc(C(=O)c3ccccc3)c3ccccc32)c(C)c1", "max response, negative = inhibition": "inactive: 0.636%"}, {"smiles": "COc1ccc(OC)c(N2C(=O)/C(=C/c3ccco3)C(=O)NC2=S)c1", "Potency": "inconclusive: 50.1 µM [inhibitor, partial curve]"}, {"smiles": "COc1cc(C=C2C(=O)NC(=O)NC2=O)ccc1OCc1ccc([N+](=O)[O-])cc1", "Potency": "inconclusive: 28.2 µM [inhibitor, single point]"}, {"smiles": "CC1=CC(c2ccccc2)NC(=S)N1", "note": "(configuration not stated)", "Potency": "active: 79.4 µM"}, {"smiles": "CC1(C)C(C=C(Cl)Cl)C1C(=O)OC(C#N)c1cccc(Oc2ccccc2)c1", "note": "(configuration not stated)", "max response, negative = inhibition": "inactive: 6.26%"}, {"smiles": "O=c1c2ccccc2nc(-c2ccco2)n1-c1ccc(Br)cc1", "max response, negative = inhibition": "inactive: -6.25%"}, {"smiles": "COC(=O)C1=C(c2ccc(S(C)(=O)=O)cc2)C[C@@H]2CC[C@H]1N2C(=O)NCC1CC1", "Potency": "inconclusive: 100 µM [inhibitor, single point]"}, {"smiles": "COc1cc(/C=C2\\C(=O)NC(=O)N(c3ccccc3)C2=O)cc(OC)c1O", "max response, negative = inhibition": "inactive: 3.4%"}, {"smiles": "CCOc1cc(/C=C2/C(=O)NC(=O)N(c3ccc(CC)cc3)C2=O)ccc1OC(=O)c1cccs1", "Potency": "inconclusive: 56.2 µM [inhibitor, partial curve, poor fit]"}, {"smiles": "Cc1cccc(N2C(=O)NC(=O)/C(=C\\c3cnc(-c4ccccc4)nc3)C2=O)c1", "Potency": "active: 50.1 µM"}, {"smiles": "O=C1NC(=S)NC(=O)C1=Cc1ccc(OCc2ccccc2)cc1", "Potency": "active: 39.8 µM"}, {"smiles": "C[C@]12CC[C@H](O)C[C@H]1CCC1C2CC[C@]2(C)[C@@H](c3ccc(=O)oc3)C[C@H]3O[C@]132", "note": "(some centres not stated)", "Potency": "inconclusive: 35.5 µM [inhibitor, full curve]"}, {"smiles": "Clc1ccc([C@H](Cn2ccnc2)OCc2csc3c(Cl)cccc23)c(Cl)c1", "Potency": "inconclusive: 22.4 µM [inhibitor, partial curve, poor fit]"}, {"smiles": "O=c1c2ccccc2nc(/C=C/c2cccnc2)n1Cc1ccccc1", "Potency": "inconclusive: 89.1 µM [inhibitor, single point]"}, {"smiles": "O=C1NC(=S)NC(=O)C1=Cc1ccc2c(c1)CCN2CCCCl", "Potency": "inconclusive: 56.2 µM [inhibitor, partial curve, poor fit]"}, {"smiles": "CCOc1cc2c(cc1OCC)-n1cccc1C(c1cccc(F)c1)NC2", "note": "(configuration not stated)", "max response, negative = inhibition": "inactive: -9.86%"}, {"smiles": "O=c1oc(Cl)c(Cl)c2ccccc12", "Potency": "active: 25.1 µM"}, {"smiles": "O=c1c2ccccc2nc(CSc2ncnc3nc[nH]c23)n1-c1ccccc1Cl", "Potency": "inconclusive: 11.2 µM [inhibitor, partial curve, poor fit]"}, {"smiles": "C/C(=C\\c1ccc(N(C)C)cc1)[N+](=O)[O-]", "Potency": "active: 20 µM"}, {"smiles": "CC1=C(O)C(=O)C=C2C1=CC=C1[C@]2(C)CC[C@@]2(C)C3C[C@](C)(C(=O)O)CC[C@@]3(C)CC[C@@]12C", "note": "(some centres not stated)", "Potency": "active: 3.55 µM"}, {"smiles": "CCn1c(O)c(C=Nc2ccc(S(N)(=O)=O)cc2)c(=O)n(CC)c1=S", "max response, negative = inhibition": "inactive: -2.1%"}, {"smiles": "COc1ccc(-n2c(-c3ccccc3[N+](=O)[O-])nc3ccccc3c2=O)cc1", "Potency": "inconclusive: 28.2 µM [inhibitor, partial curve, poor fit]"}, {"smiles": "O=C(O)CC1OCC=C2CN3CCC45C6=CC(=O)C(=O)C([N+](=O)[O-])=C6NC4C1C2CC35", "note": "(configuration not stated)", "Potency": "active: 79.4 µM"}, {"smiles": "CCOCCc1c(O)[nH]c(=S)[nH]c1=O", "Potency": "inconclusive: 100 µM [inhibitor, single point]"}, {"smiles": "CCN(CC)c1ccc(CNCCc2ccccc2F)cc1", "max response, negative = inhibition": "inactive: -9.86%"}, {"smiles": "CCCN(CCC)C1CCc2ccc(O)cc2C1", "note": "(configuration not stated)", "max response, negative = inhibition": "inactive: 3.16% and inactive: 1.97%"}, {"smiles": "Cc1cc2oc(=O)cc(-c3ccccc3)c2c(C)c1-c1ccc(CO)cc1", "Potency": "inconclusive: 14.1 µM [inhibitor, partial curve, poor fit]"}, {"smiles": "O=c1[nH]c(=S)n(CCC2=CCCCC2)c(O)c1/C=N/Nc1ccccc1", "Potency": "inconclusive: 50.1 µM [inhibitor, single point]"}, {"smiles": "C[C@H](CCC(=O)O)C[C@H](C)C[C@H](C)C(=O)/C=C(\\O)[C@H](C)C[C@H](C)C/C=C/[C@@H](C)[C@@H](O)[C@@H](C)[C@@H](O)C[C@@H]1CC[C@@](C)(C2CC[C@@](C)([C@@H](C)O)O2)O1", "note": "(some centres not stated)", "Potency": "inconclusive: 44.7 µM [inhibitor, partial curve]"}, {"smiles": "NC(Cc1cc(O)c(O)cc1O)C(=O)O", "note": "(configuration not stated)", "Potency": "active: 44.7 µM"}, {"smiles": "O=C1C=C2C(=CCOC2O)O1", "note": "(configuration not stated)", "Potency": "active: 12.6 µM"}, {"smiles": "O=c1oc2ccccc2c(O)c1C(c1ccccc1O)c1c(O)c2ccccc2oc1=O", "Potency": "inconclusive: 50.1 µM [inhibitor, partial curve, poor fit]"}, {"smiles": "CCOC(=O)[C@]1(C#N)[C@@H]2C=CC(C(N)=O)=CN2[C@@H](C(N)=O)[C@@H]1c1ccc(F)cc1", "Potency": "inconclusive: 89.1 µM [inhibitor, single point]"}, {"smiles": "ClCCN(CCCl)c1ccc(C=NNc2ncccn2)cc1", "max response, negative = inhibition": "inactive: -8.13%"}, {"smiles": "Oc1ccc2c3c1O[C@H]1c4c(c5ccccc5n4Cc4ccccc4)C[C@@]4(O)C(C2)N(CC2CC2)CC[C@]314", "Potency": "inconclusive: 35.5 µM [inhibitor, full curve, poor fit]"}, {"smiles": "CN(N=O)c1cc(O)ccc1O", "Potency": "active: 44.7 µM"}, {"smiles": "C=C1C(=O)O[C@H]2[C@H]1[C@H](OC(=O)CC(=O)O[C@@H]1C[C@@H](C)[C@@H]3C=CC(=O)[C@@]3(C)[C@H]3OC(=O)C(=C)[C@H]13)C[C@@H](C)[C@H]1C=CC(=O)[C@]12C", "Potency": "inconclusive: 50.1 µM [inhibitor, partial curve]"}, {"smiles": "Oc1ccc2c3c1O[C@H]1c4c(c5ccccc5n4Cc4ccccc4)C[C@]4(O)[C@H](C2)N(CC2CC2)CC[C@@]314", "Potency": "inconclusive: 89.1 µM [inhibitor, single point]"}, {"smiles": "C=C1N2CCC(CC2)C1(O)c1ccc(C)cc1", "note": "(configuration not stated)", "max response, negative = inhibition": "inactive: 10.1%"}, {"smiles": "ClCCN(CCCl)c1ccc(C2=NCCc3ccccc32)cc1", "Potency": "inconclusive: 89.1 µM [inhibitor, partial curve, poor fit]"}, {"smiles": "COc1ccc2c(c[n+](C)c3c4cc5c(cc4ccc23)OCO5)c1OC", "Potency": "active: 28.2 µM"}, {"smiles": "Cc1cc(C=C2C(=O)N(C)C(=S)N(C)C2=O)c(C)n1-c1cccnc1", "Potency": "inconclusive: 56.2 µM [inhibitor, partial curve, poor fit]"}, {"smiles": "CCOC(=O)c1c(-n2c(C)cc(/C=C3\\C(=O)NC(=O)N(C)C3=O)c2C)sc2c1CCCC2", "Potency": "inconclusive: 50.1 µM [inhibitor, partial curve]"}]}]}
